Source: PubChem BioAssay AID1508600 (Functional Genomics Laboratory (NCATS/FGL), 2020)
The whole screen tested about 53,000 sequences, of which about 3,700 (7%) were called active.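 Rule for the calls: active = gene knockdowns whose robust z-score for IL-1 alpha signal is at least 2 or at most -2, so actives lie on both sides; inactive = the rest.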 The list shows a part of the results.

Assay: Components of the Cytosolic LPS Sensing Pathway: Gene Identification via Genome-wide siRNA Screen;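 note: robust z of the log signal after scaling to non-targeting control siRNA wells of the plate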
Conditions: RAW264.7 macrophages, IL-1a HTRF, actives lie on both sides, screened at 100 nM (by protocol), cells primed 5 h with Pam3CSK4 first
How it was run: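 Three distinct siRNAs per gene were tested singly at 100 nM in RAW264.7 macrophages. Following Pam3CSK4 priming and 24 hour LipidA transfection, IL-1a secretion was read by HTRF.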

Row | Sequence | z-score
1 | GGAACUUCAUUGAACUAUGTT against Trmt2b | inactive: -0.363
2 | GGAGGAGUUCUGCAUCUACTT against Syngr1 | inactive: -1.04
3 | GGUAUUCUAUAAGCUCCUUTT against Dennd1a | active: -2.07
4 | GGAGAAGAAAAAUCUCUCCTT against Ccdc28a | inactive: 0.578
5 | GCGUAGACAAAAAACUAUCTT against F13b | inactive: 1.02
6 | GGAACUUUGUGAAGGAAGCTT against Cog8 | inactive: 0.372
7 | CCUUACGUAACUGAACAAATT against Tra2a | inactive: 0.0768
8 | CCUGUGUCUAUAUUCUUAGTT against Tep1 | inactive: -0.411
9 | CCAGUAAACCGAGACCAUUTT against Nsfl1c | active: 2.02
10 | GGUAUAUGUCACCAUACUCTT against Phxr2 | inactive: -1.99
11 | CGCAGUGCACAUCAAGGGATT against Lfng | inactive: 0.829
12 | GGAAGUGAUGCAUAAAUACTT against Ppef2 | inactive: -1.26
13 | CGGAAUCAUUCGGAAUGAGTT against Capza3 | inactive: -1.01
14 | GGAUCAUCAAGAUAUAGAUTT against Trpm7 | active: 2.44
15 | GGGCUUUAUUCAUCCACUCTT against 1700067P10Rik | inactive: 1.52
16 | GCAUAGAUUGAUGGCUAAUTT against Chd8 | inactive: 1.18
17 | GAAACUACACCUCAGAGUGTT against Trrap | inactive: -1.36
18 | GGCUGUUUGCGUGAUAGACTT against Lrwd1 | inactive: -1.51
19 | CGGAUUCAUCAGUUUGGUATT against Cdc7 | inactive: 0.274
20 | GGAAAAGAAAGACUUUUGCTT against Fcho2 | inactive: 0.102
21 | CCAGUUGUCUAGACCUGCATT against Ptbp1 | inactive: -0.301
22 | CGAAUACUGGACCAUGAUUTT against S100a16 | inactive: -0.35
23 | GGAGAUAUCACACAAAUCCTT against Gabrg1 | inactive: -0.32
24 | GGGAAGAUCUUCAGGAAAATT against Cbr3 | inactive: 1.1
25 | CCUUCAUCCAAGGACGAUGTT against Olfr781 | inactive: -0.786
26 | GGUAAAGAGACACAAGGUGTT against Gjb1 | inactive: 1.04
27 | GGCAUCUUUUGGGCAGCAGTT against Scrg1 | inactive: -0.429
28 | GGAUAAUUCAGACAACAAUTT against Fus | inactive: -0.236
29 | GGGACAAUACCAAUUUCUCTT against Car15 | inactive: -0.209
30 | GGUAUCAUAUGAUAAAGCATT against Npy5r | inactive: -0.978

Taken from above.
z-score, CCUUACGUAACUGAACAAATT against Tra2a is entered as inactive: 0.0768
z-score, GCAUAGAUUGAUGGCUAAUTT against Chd8 is entered as inactive: 1.18
